# Data taken from PubChem BioAssay AID1347075 (National Center for Advancing Translational Sciences (NCATS), 2019).
# Hit rate of the full screen: of about 400,000 compounds, about 5,500 (1.4%) were called active. Inconclusive means that the source gave no clear call. Such entries were picked first, then a sample of the others. Calls come from the whole dose curve; as a rule, active = well fitted cell-killing curve with a large enough effect; inconclusive = small, poorly fitted or top-dose-only effect, or effect the other way; inactive = flat fitted curve, though single readings scatter. Where the call is inconclusive, the potency comes from a doubtful curve fit. The source holds several records for some structures; these can differ, active in one and inactive in another.
# Experiment: qHTS assay for MDR1-selective chemotherapeutics: Primary screen using the parental adenocarcinoma cell KB-3-1; note: nearly all actives have a fitted effect of over 60% in size
# Details: KB-3-1 viability, CellTiter-Glo ATP luminescence, 72 h; activity change, negative = cytotoxic: at 46.1 µM (top of the series)
# Summary of the method: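 Screening of KB-3-1 cells (DMEM, 10% FBS, phenol-red free) ran from lowest to highest compound concentration; after 72 h at 37 °C viability was read luminescently and curves fitted.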
# % is set by controls: 0 for no effect and ±100 for the full control effect; potency is the fitted concentration of half-maximal effect.
Structure (SMILES),Potency,"activity change, negative = cytotoxic"
COC(=O)[C@H](CO)NS(=O)(=O)c1ccc(C)cc1,inactive,
CS(=O)(=O)c1ccc(N2CCN(S(=O)(=O)c3cccs3)CC2)c([N+](=O)[O-])c1,"inconclusive: 13 µM [cytotoxic, partial curve]",
O=C(c1cc(-c2ccncc2)nc2ccc(Cl)cc12)N1CCN(C(=O)C2CCCO2)CC1 (centres undefined),inactive,
CCOC(=O)C1=C[C@@H](C(C)C)N(S(=O)(=O)c2ccc(C)cc2)[C@H]1c1ccc(C(C)C)cc1,inactive,
Cc1cc(C)nc(-n2nc(C)c3c(=O)[nH]c(C(F)(F)F)nc32)n1,inactive,
CC(NC(=O)C1CCN(C(=O)c2ccc(-n3ccc4ccccc43)s2)CC1)c1ccccc1 (centres undefined),inactive,
COc1cc(C2CC(=O)Nc3cc(C)c(C)cc32)cc(OC)c1OC (centres undefined),active: 9.2 µM,
COCc1n[nH]c(=S)n1-c1ccccc1,inactive,
Cc1ccc(N=C2NC(=O)CS2)cc1C,"inconclusive: 18.4 µM [cytotoxic, single point]",
COc1ccc2cc(C#N)c(SCC(=O)N3CCCC3)nc2c1,"inconclusive: 11.2 µM [cytotoxic, partial curve, poor fit]",
COc1cc(C2NC(=O)N(C)C3=C2C(=O)N(c2cccc(Cl)c2)C3)ccc1O (centres undefined),"inconclusive: 11.6 µM [rising, partial curve]",
CN(C)c1ccc(/C=C/c2ccc3ccccc3n2)cc1,active: 8.2 µM,
Cc1ccc(Cl)cc1-n1ncc2c(NC3CCCCC3)ncnc21,"inconclusive: 10.3 µM [cytotoxic, partial curve, poor fit]",
COc1ccc(/C=N/NC(=O)c2nn(-c3ccc(C)c(C)c3)c(=O)c3ccccc23)cc1,inactive,
CC(C)NC(=O)c1cc(-c2ccc(Br)cc2)on1,inactive,
O=C1c2cccc3cccc(c23)C(=O)N1CC1CCN(CC(O)COc2ccc3ccccc3c2)CC1 (centres undefined),"inconclusive: 20.6 µM [cytotoxic, single point]",
Nc1cc(S(=O)(=O)Nc2ccccc2Cl)ccc1N1CCOCC1,"inconclusive: 2.91 µM [cytotoxic, partial curve, poor fit]",
Cc1ccc(C(C)C)c(OCCCNCc2cccnc2)c1,"inconclusive: 29.1 µM [rising, single point]",
Cc1c(Cl)ccc2c1NC(=O)[C@]21[C@@H]2C(=O)N(Cc3ccccc3)C(=O)[C@@H]2[C@@H]2CCCN21,"inconclusive: 20.6 µM [cytotoxic, partial curve]",
COc1ccc(NC(=O)C2(C)Cc3c(-c4cccc(C(N)=O)c4)ccnc3O2)cn1 (centres undefined),active: 9.2 µM,
Cc1ccnc(NC(=O)c2cccc(S(=O)(=O)N3CCCc4ccccc43)c2)c1,"inconclusive: 16.4 µM [cytotoxic, partial curve, poor fit]",
COC(C[C@H]1O[C@H]1[C@H](O)[C@H](C)OCc1ccccc1)OC,inactive,
COc1ccc(CN(C)CC(=O)Nc2ccccc2C(=O)NC2CC2)cc1,"inconclusive: 20.6 µM [cytotoxic, single point]",

Structure (SMILES),Potency,"activity change, negative = cytotoxic"
COCCN(C(=S)Nc1cccc(C)c1)C(C)c1cccnc1 (centres undefined),inactive,
CCCCCCn1cc(CN2CC(N3CCCC3)CS2(=O)=O)nn1 (centres undefined),inactive,
COc1ccc(OC)c(Nc2nc(-c3sc(NC(=O)CC(C)C)nc3C)cs2)c1,"inconclusive: 16.4 µM [cytotoxic, single point]",
CC1(C)[C@@H](O)CC[C@]2(C)C3C(O)C=C4[C@H]5C[C@@](C)(CO)CC[C@]5(C)CC[C@]4(C)[C@]3(C)CC[C@@H]12 (some centres undefined),inactive,
COc1cc(/C=C2\SC(=S)N(Nc3ccccc3)C2=O)ccc1O,"inconclusive: 25.9 µM [rising, single point]",
O=C(COc1ccc(C2SCCS2)cc1)Nc1ccc(Cl)cc1,"inconclusive: 29.1 µM [rising, single point]",
O=C(NC(c1ccccc1)c1cnccn1)C1CCN(Cc2ccc(Cl)c(Cl)c2)CC1 (centres undefined),"inconclusive: 29.1 µM [cytotoxic, single point]",
Cc1nc(SCC(=O)N2CCN(C(=O)c3cccs3)CC2)c2c(C)c(C)sc2n1,"inconclusive: 18.4 µM [cytotoxic, single point]",
CC1(C)NC(C)(C)/C(=C\c2cccs2)C(=O)C1=O,"inconclusive: 18.4 µM [cytotoxic, single point]",
Cc1cc[n+](-c2ccccc2)c2ccccc12,"inconclusive: 14.6 µM [cytotoxic, partial curve, poor fit]",
Cc1c(N2C(=O)/C(=C3\C(=O)N(CC(=O)O)c4ccccc43)SC2=S)c(=O)n(-c2ccccc2)n1C,"inconclusive: 16.4 µM [cytotoxic, single point]",
Cc1ccc(C)c(N2CCN(C(=O)C(Cc3ccccc3)n3cccc3)CC2)c1 (centres undefined),"inconclusive: 18.4 µM [cytotoxic, partial curve, poor fit]",
Cc1ccc(S(=O)(=O)Nc2cccc(C(=O)NCc3cccnc3)c2)cc1F,active: 7.31 µM,
CC1=NOC(=O)/C1=C\c1ccc(-c2ccc(Br)cc2)o1,"inconclusive: 18.4 µM [cytotoxic, single point]",
Cc1ccc(Nc2nnc(SCC(=O)c3c(N)n(C4CC4)c(=O)[nH]c3=O)s2)cc1C,"inconclusive: 29.1 µM [cytotoxic, single point]",
O=S1(=O)C=C(Sc2nc3ccccc3s2)c2ccccc21,active: 2.31 µM,
CC1(C)Cc2ccccc2C(/C(=N\Nc2cccc(Cl)c2)C(N)=O)=N1,"inconclusive: 18.4 µM [cytotoxic, single point]",
CC1(C)N=C(N)N=C(N)N1c1ccccc1,"inconclusive: 32.6 µM [cytotoxic, single point]",
COc1ccc(S(=O)(=O)N2CCN(CCOc3ccc(Br)cc3)CC2)cc1OC,"inconclusive: 6.51 µM [cytotoxic, partial curve]",
COc1ccccc1C(C)NC(=O)c1ccc(S(=O)(=O)NCc2ccco2)cc1 (centres undefined),"inconclusive: 29.1 µM [cytotoxic, single point]",
COc1ccc(OC)c(NC(=O)CSc2nc3n[nH]c(C)c3c(=N)n2-c2cccc(Cl)c2C)c1,"inconclusive: 29.1 µM [cytotoxic, single point]",
CCC1=Nc2cc(C(=O)NCc3ccccc3Cl)ccc2Sc2ccc(C)cc21,active: 3.66 µM,
O=C(Cn1cnc2ccccc2c1=O)OCCCCN1C(=O)c2ccccc2C1=O,"inconclusive: 29.1 µM [rising, single point]",

# Some of these compounds in order of count of non-hydrogen atoms, low to high.
Structure (SMILES),Potency,"activity change, negative = cytotoxic"
CC1(C)N=C(N)N=C(N)N1c1ccccc1,"inconclusive: 32.6 µM [cytotoxic, single point]",
Cc1cc[n+](-c2ccccc2)c2ccccc12,"inconclusive: 14.6 µM [cytotoxic, partial curve, poor fit]",
CC1(C)NC(C)(C)/C(=C\c2cccs2)C(=O)C1=O,"inconclusive: 18.4 µM [cytotoxic, single point]",
CC1=NOC(=O)/C1=C\c1ccc(-c2ccc(Br)cc2)o1,"inconclusive: 18.4 µM [cytotoxic, single point]",
O=S1(=O)C=C(Sc2nc3ccccc3s2)c2ccccc21,active: 2.31 µM,
O=C(COc1ccc(C2SCCS2)cc1)Nc1ccc(Cl)cc1,"inconclusive: 29.1 µM [rising, single point]",
CCCCCCn1cc(CN2CC(N3CCCC3)CS2(=O)=O)nn1 (centres undefined),inactive,
CC1(C)Cc2ccccc2C(/C(=N\Nc2cccc(Cl)c2)C(N)=O)=N1,"inconclusive: 18.4 µM [cytotoxic, single point]",
Cc1ccc(S(=O)(=O)Nc2cccc(C(=O)NCc3cccnc3)c2)cc1F,active: 7.31 µM,
Cc1ccc(C)c(N2CCN(C(=O)C(Cc3ccccc3)n3cccc3)CC2)c1 (centres undefined),"inconclusive: 18.4 µM [cytotoxic, partial curve, poor fit]",
O=C(Cn1cnc2ccccc2c1=O)OCCCCN1C(=O)c2ccccc2C1=O,"inconclusive: 29.1 µM [rising, single point]",
O=C(NC(c1ccccc1)c1cnccn1)C1CCN(Cc2ccc(Cl)c(Cl)c2)CC1 (centres undefined),"inconclusive: 29.1 µM [cytotoxic, single point]",
CC1(C)[C@@H](O)CC[C@]2(C)C3C(O)C=C4[C@H]5C[C@@](C)(CO)CC[C@]5(C)CC[C@]4(C)[C@]3(C)CC[C@@H]12 (some centres undefined),inactive,
COc1ccc(OC)c(NC(=O)CSc2nc3n[nH]c(C)c3c(=N)n2-c2cccc(Cl)c2C)c1,"inconclusive: 29.1 µM [cytotoxic, single point]",
Cc1c(N2C(=O)/C(=C3\C(=O)N(CC(=O)O)c4ccccc43)SC2=S)c(=O)n(-c2ccccc2)n1C,"inconclusive: 16.4 µM [cytotoxic, single point]",

# Going on with the list.

Structure (SMILES),Potency,"activity change, negative = cytotoxic"
CCCCn1c(=N)c(S(=O)(=O)c2ccc(Cl)cc2)cc2c(=O)n3cccc(C)c3nc21,inactive,
CN(C)S(=O)(=O)c1cccc(COC(=O)CNC(=O)c2ccc(Br)o2)c1,,inconclusive: 31.2%
CC(C)(C)OC(=O)N1CCC(c2c(C(=O)NCc3ccccc3)cnn2-c2ccccc2)CC1,inactive,
CN(C)CCN(Cc1ccccc1)C(c1cc2ccccc2o1)c1nnnn1C(C)(C)C (centres undefined),"inconclusive: 18.4 µM [cytotoxic, single point]",
COc1ccc2nc(N(CCN(C)C)C(=O)c3ccc4c(c3)OCCO4)sc2c1,"inconclusive: 23.1 µM [rising, single point]",
CC(=O)NNC(=S)NC(=O)C(c1ccccc1)c1ccccc1,"inconclusive: 16.4 µM [cytotoxic, single point]",
Cc1noc(C)c1COc1ccc(C(=O)NNC(=O)c2ccccc2)cc1,active: 4.61 µM,
CCc1ccc(CNC(=O)c2cc3c(=O)n(CC)c4ccccc4c3s2)cc1,"inconclusive: 3.66 µM [rising, full curve, poor fit]",
Cc1cccc(OC2(c3ccccc3)OC(=O)c3ccccc32)c1C (centres undefined),inactive,
CCc1ccc(-c2cc(C(=O)Nn3cnnc3)c3ccccc3n2)cc1,"inconclusive: 16.4 µM [cytotoxic, partial curve, poor fit]",
O=C(Nc1ccccc1N1CCN(C(=O)c2ccccc2)CC1)c1cc(Br)ccc1Cl,"inconclusive: 29.1 µM [cytotoxic, single point]",
Cc1ccc2nc(SC(C(=O)Nc3ccc(F)cc3)c3ccccc3)[nH]c2c1 (centres undefined),"inconclusive: 18.4 µM [cytotoxic, single point]",
Cc1cc(C)cc(CC(=O)N2CCC2(C)C(=O)NS(=O)(=O)Cc2ccccc2)c1 (centres undefined),inactive,
Cc1ccc(CNC(=O)c2cnc(N3CCCCC3)c3ccccc23)cc1,inactive,
CCN1C(=O)c2cccc3c(NC(=O)c4ccc5c(c4)OCCO5)ccc1c23,"inconclusive: 8.2 µM [rising, partial curve, poor fit]",
O=C(O)c1cc([N+](=O)[O-])ccc1N1CCCCC1,inactive,
O=C(c1ccoc1)N1CCN(c2cc(-c3ccccc3)nc3cc(-c4ccccc4)nn23)CC1,active: 16.4 µM,
CCOc1ccccc1CNC(=O)C(C)n1nc(C)c2c(C)n(-c3ccccc3)nc2c1=O (centres undefined),"inconclusive: 29.1 µM [cytotoxic, single point]",
COC(=O)Cc1sc(-c2ccccn2)nc1-c1ccccc1,,inconclusive: -11.1%
COc1ccc(NC(=O)CN(C)C(=O)CC2CCCC2)cc1,inactive,
C[n+]1c(/C=C/c2ccc(F)cc2)ccc2ccccc21,"inconclusive: 10.3 µM [cytotoxic, partial curve, poor fit]",
O=C(Nc1ccccc1)/C(=C/c1cccnc1)NC(=O)c1ccccc1,"inconclusive: 0.092 µM [rising, full curve]",
CCOC(=O)C1CCN(c2c(Nc3cc(C)cc(C)c3)c(=O)c2=O)CC1,"inconclusive: 29.1 µM [cytotoxic, single point]",
